# The campaign covered roughly 320,000 compounds. About 620 (0.19%) were called active. The shares of active, inactive and inconclusive entries below differ from those in the screen. Rule as the data show it: active = activation above about 80%; inconclusive = between about 30% and that limit; inactive = weaker than that.
# Amino acid sequences for entries named in this document (tags omitted).
# UniProt Q8NER1, whole entry, looked up: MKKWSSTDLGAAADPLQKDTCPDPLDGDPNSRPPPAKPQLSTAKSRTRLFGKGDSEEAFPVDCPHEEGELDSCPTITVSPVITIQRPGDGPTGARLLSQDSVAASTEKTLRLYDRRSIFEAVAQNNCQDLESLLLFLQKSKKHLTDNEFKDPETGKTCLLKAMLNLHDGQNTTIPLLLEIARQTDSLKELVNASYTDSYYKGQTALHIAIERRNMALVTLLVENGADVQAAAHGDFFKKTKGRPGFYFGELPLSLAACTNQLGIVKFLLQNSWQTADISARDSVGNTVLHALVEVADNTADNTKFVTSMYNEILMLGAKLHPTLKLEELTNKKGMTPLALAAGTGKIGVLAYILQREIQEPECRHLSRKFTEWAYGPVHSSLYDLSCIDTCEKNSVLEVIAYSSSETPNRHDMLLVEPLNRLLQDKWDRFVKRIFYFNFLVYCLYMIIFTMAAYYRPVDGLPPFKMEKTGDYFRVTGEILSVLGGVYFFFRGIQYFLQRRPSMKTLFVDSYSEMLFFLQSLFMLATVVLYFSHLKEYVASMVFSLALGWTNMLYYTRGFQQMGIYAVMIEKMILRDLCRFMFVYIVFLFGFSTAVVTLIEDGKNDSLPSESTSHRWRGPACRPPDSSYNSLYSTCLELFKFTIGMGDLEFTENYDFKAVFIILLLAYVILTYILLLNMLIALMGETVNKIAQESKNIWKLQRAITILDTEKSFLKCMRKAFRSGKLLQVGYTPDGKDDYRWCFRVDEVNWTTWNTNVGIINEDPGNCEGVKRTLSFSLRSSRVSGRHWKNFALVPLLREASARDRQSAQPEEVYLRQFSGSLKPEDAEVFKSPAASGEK
# Target: Transient receptor potential cation channel subfamily V member 1 (Homo sapiens) (UniProt Q8NER1)
# Assay: HTS Assay for Compounds that Act as Agonists of the Vanilloid Receptor 1; also: 0% is about no effect
# Conditions: TRPV1-expressing cells, Fluo-8 calcium influx, agonist mode; at 8.33 µM, active compounds read high
# How it was run: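 TRPV1-expressing cells were cultured overnight at 35.5C and loaded with Fluo-8 calcium dye for 40 to 90 min at room temperature. After a 10 s baseline, compound was added and calcium influx was read kinetically for 3 min (ex 480/em 520 nm).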
row,SMILES,activation
1,Cc1ccc(NC(=O)c2nsc(Cl)c2Cl)cc1,inconclusive: 66.8%
2,O=C(N1CCN(c2ccccc2)CC1)C12CC3CC(CC(C3)C1)C2,inconclusive: 30.1%
3,COc1ccc(Oc2nc(-c3cccnc3)nc3ccccc23)cc1,inconclusive: 42.5%
4,CC(=O)c1ccc(-c2ccc(C(=O)N(C)Cc3nc4ccccc4c(=O)[nH]3)o2)cc1,inconclusive: 53.4%
5,Cc1cc(SCC(=O)N/N=C/c2ccc(O)cc2O)c(C)cc1Br,inconclusive: 36.4%
6,COc1cc2c(cc1OC)-c1cc(NC3CC3)nc(=O)n1CC2,inactive: 2.22%
7,COc1ccc(CC(=O)Nc2ccc(-c3cn4cccc(C)c4n3)cc2)cc1OC,inconclusive: 43.7%
8,Cc1ccc(-c2nn(-c3ccccc3)cc2/C=C(\C#N)C(=O)NCc2ccccc2)cc1,inconclusive: 36.9%
9,Cc1ccc(S(=O)(=O)N2CCOCC2)cc1NC(=O)COC(=O)CNC(=O)c1ccc(C(C)(C)C)cc1,inconclusive: 41.6%
10,COc1ccc(NS(=O)(=O)c2cc(NC(=O)/C=C/c3cccs3)ccc2N2CCOCC2)cc1,inactive: -2.61%
11,CCOc1cc(C(=O)NC(C)Cc2cccs2)cc(OCC)c1OCC (stereo not drawn),inconclusive: 31.9%
12,O=C(CCC1CCCCC1)NCCN1C2=NC[C@H](Cc3ccccc3)N2C[C@H]1Cc1ccc(O)cc1,inactive: 0.922%
13,CCOP(=O)(OCC)C(Nc1ccccc1)c1ccccc1C(F)(F)F (stereo not drawn),inconclusive: 47%
14,CC(=O)c1ccc(NC(=O)/C=C/c2ccc(C)cc2)cc1,inconclusive: 51.7%
15,CC(Oc1ccccc1)c1ccnc2nc(N3CCOCC3)nn12 (stereo not drawn),inconclusive: 45%
16,COc1ccc(-n2nc(C(=O)NCC(=O)Nc3cc(OC)c(OC)c(OC)c3)c3ccccc3c2=O)cc1OC,inactive: -2.75%
17,CCCCC(=O)Nc1ccccc1C(=O)OCC(=O)c1ccc2c(c1)OCCO2,inactive: 18.3%
18,COc1ccccc1/C(C)=N/NC(=O)c1nnn(-c2nonc2N)c1C(C)C,inconclusive: 31%
19,O=C(N/N=C/c1cccc(OCc2ccccc2)c1)c1ccc(Br)cc1,inconclusive: 40%
20,CCCCCOC(=O)C(C)c1c(C)[nH]c(=S)[nH]c1=O (stereo not drawn),inconclusive: 50.9%

row,SMILES,activation
1,CC(C)c1nc(SCC(=O)N2c3ccccc3CC2C)c2ccccc2n1 (stereo not drawn),inconclusive: 39%
2,CCc1ccc(C(=O)/C=C/c2cnn(C)c2C)s1,inconclusive: 58.5%
3,CC1CCCCN1C(=O)CSc1nc2ccccc2n1CC(=O)N1CCc2ccccc21 (stereo not drawn),inconclusive: 57.7%
4,CC1CCC(NC(=O)COc2ccccc2C(N)=O)CC1 (stereo not drawn),inconclusive: 46.1%
5,Cc1cccc(C)c1N1CCN(C(=O)N2CCOCC2)CC1,active: 80.5%
6,O=C(Nc1ccccc1Cl)C1C(c2ccccc2)C1(Cl)Cl (stereo not drawn),inconclusive: 77.8%
7,CCOC(=O)C(Cc1cc(C(C)=O)ccc1OCC)C(=O)OCC,inconclusive: 37.1%
8,S=C(NCCc1ccccc1)Nc1ccccc1Cl,inconclusive: 56.6%
9,COc1ccc(-c2cc(C(=O)NCC(c3ccco3)N(C)C)c3ccccc3n2)cc1OC (stereo not drawn),inactive: 0.322%
10,Cn1nc(-c2ccc(Cl)cc2)c2cc(C(=O)N3CCOCC3)sc21,inconclusive: 54.1%
11,Cc1ccc(C)c(NC(=O)c2cc3ccccc3o2)c1,inconclusive: 32.5%
12,CCOC(=O)c1ccc(NC(=S)NCc2ccco2)cc1,inconclusive: 30.3%
13,O=C(NC1=NCCS1)c1ccc(Cl)c(S(=O)(=O)N2CCCCCC2)c1,inconclusive: 33%
14,CC(C)(C)C1CCC(C(=O)Nc2ccccc2)CC1 (stereo not drawn),inconclusive: 61%
15,O=C(NCCOc1nc(N2CCCCC2)nc(N2CCCCC2)n1)Nc1ccccc1,inconclusive: 61.6%
16,O=C(CSc1ncnc2nc[nH]c12)N1CCN(c2ccc(Cl)cc2)CC1,inconclusive: 56%
17,CN(C)c1ncc(CN2CCC(CO)(CCCc3ccccc3)CC2)s1,inactive: 2.47%
18,C/C=C/c1ccc(OCC(=O)Nc2ccncc2)c(OC)c1,inconclusive: 37.6%
19,CCOC(=O)c1ccc(NC(=O)c2ccc(C)c(S(=O)(=O)N3CCOCC3)c2)cc1,inconclusive: 37.5%
20,CC1CCN(C(=O)C2CCN(C(=O)c3cc4sccc4n3Cc3ccc(F)cc3)CC2)CC1,inconclusive: 35.9%

row,SMILES,activation
1,O=C(NCC(c1cccs1)N1CCc2ccccc21)c1ccccc1 (stereo not drawn),inconclusive: 34.5%
2,CCc1c(C)c2ccc(OCC(=O)OC(C)C)c(C)c2oc1=O,inconclusive: 42.6%
3,COc1cc(NC(=S)NCc2cccs2)cc(OC)c1,inconclusive: 45.1%
4,CCOC(=O)c1ccc(NC(=O)c2nn(CC)cc2Br)cc1,inconclusive: 35.6%
5,C=C(CCC(=O)c1ccccc1)C(=O)c1ccccc1,inactive: 16.7%
6,Cc1ccc(SCC(=O)NCc2ccc(F)cc2)cc1,inconclusive: 44.4%
7,C[C@H]1CCC(=O)N([C@H](COc2ccccc2)Cc2ccccc2)CC1,inconclusive: 45.2%
8,Cc1ccc(Nc2c(-c3ccccn3)nc3ccc(C)cn23)cc1,inconclusive: 34.8%
9,Fc1ccc(C2CCCN2Cc2nc(Cc3ccccc3)no2)cc1 (stereo not drawn),inconclusive: 53.2%
10,CC(=O)c1cccc(NC(=O)CSCc2ccccc2)c1,inconclusive: 37.7%
11,O=C(Nc1ccccc1C(=O)N/N=C/c1ccncc1)c1ccccc1,inconclusive: 56.2%
12,O=C(N/N=C/C1=Cc2ccccc2OC1)c1ccncc1,inconclusive: 49.8%
13,COc1ccc(SC[C@H](Cc2ccccc2)N2CC[C@@H](C(C)(C)C)CCC2=O)cc1,inconclusive: 52%
14,O=c1[nH]cnc2scc(C3COc4ccccc4O3)c12 (stereo not drawn),inactive: -1.45%
15,Cc1ccccc1OCC(=O)OCC(=O)NCc1cccs1,inconclusive: 35.8%
16,CCCCNc1nnc(Cc2ccc(Cl)cc2)c(=O)[nH]1,inactive: -3.61%
17,O=C(Nc1ccc(S(=O)(=O)N2CCCCC2)cc1)c1ccncc1,inconclusive: 50.9%
18,CN1C(=O)COc2ccc(C(=O)c3oc4ccccc4c3-c3cnc4c(c3)COc3ccccc3-4)cc21,inactive: 0.137%

# Structures above that contain a tert-butyl group:
row,SMILES,activation
9,Cc1ccc(S(=O)(=O)N2CCOCC2)cc1NC(=O)COC(=O)CNC(=O)c1ccc(C(C)(C)C)cc1,inconclusive: 41.6%
14,CC(C)(C)C1CCC(C(=O)Nc2ccccc2)CC1 (stereo not drawn),inconclusive: 61%
13,COc1ccc(SC[C@H](Cc2ccccc2)N2CC[C@@H](C(C)(C)C)CCC2=O)cc1,inconclusive: 52%

# — PubChem BioAssay AID540275 (National Center for Advancing Translational Sciences (NCATS), 2011)
